This assay addresses GST-STG^9A (GST-fused C-terminus of STG mimicking the unphosphorylated form). The assay is described as follows: pull-down.

No constants are given. Whether binding was seen depends on the method and setting. Binding seen in cells or lysates may run through a third protein. Binding calls can cover weak binding; strength is not graded here. Sequences can lack the tags named with a protein.

B1: flag-tagged μ3 subunit of the adaptor protein AP-3 (μ3A) (protein, UniProt Q9JKC8 1-418)
chain: MIHSLFLINCSGDIFLEKHWKSVVSQSVCDYFFEAQEKAADVENVPPVISTPHHYLISIYRDKLFFVSVIQTEVPPLFVIEFLHRVADTFQDYFGECSEAAIKDNVVIVYELLEEMLDNGFPLATESNILKELIKPPTILRSVVNSITGSSNVGDTLPTGQLSNIPWRRAGVKYTNNEAYFDVVEEIDAIIDKSGSTVFAEIQGVIDACIKLSGMPDLSLSFMNPRLLDDVSFHPCIRFKRWESERVLSFIPPDGNFRLISYRVSSQNLVAIPVYVKHSISFKENSSCGRFDITIGPKQNMGKTIEGITVTVHMPKVVLNMNLTPTQGSYTFDPVTKVLAWDVGKITPQKLPSLKGLVNLQSGAPKPEENPNLNIQFKIQQLAISGLKVNRLDMYGEKYKPFKGVKYVTKAGKFQVRT
B1: the binding result was “binds”.

The record behind these values is doi:10.1101/2020.11.12.379867.
